Binding data for one substance are collected here from paper PMC10880893, “Structures of the holoenzyme TglHI required for 3-thiaglutamate biosynthesis” (Structure (London, England : 1993), 2023).

Chains of the proteins cited; added tags and fusions are not shown. Lines headed by an entry give the natural chain unless they say otherwise; changes in a name come on top.
UniProt A0A8T8BZN3: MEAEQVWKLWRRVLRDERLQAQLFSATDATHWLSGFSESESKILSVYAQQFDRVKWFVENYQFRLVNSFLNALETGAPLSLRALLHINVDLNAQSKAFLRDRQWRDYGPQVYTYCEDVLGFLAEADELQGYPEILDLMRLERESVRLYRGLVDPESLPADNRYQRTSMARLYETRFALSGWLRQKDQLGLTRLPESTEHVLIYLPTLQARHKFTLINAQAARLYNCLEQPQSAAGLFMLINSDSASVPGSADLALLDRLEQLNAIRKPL

No constants are given. Whether binding was seen depends on the method and setting. Binding seen in cells or lysates may run through a third protein. Binding calls can cover weak binding; strength is not graded here.

The assay has as its target TglH (Pseudomonas syringae pv. maculicola ES4326). Kind of assay: crystal structure; co-expressed, co-purified TglHI without iron (apoTglHI), with two (TglHI-2Fe) and three Fe ions (TglHI-3Fe); sitting-drop vapor diffusion at 16 °C; 0.2 M potassium sodium tartrate tetrahydrate, 20% w/v PEG 3350; both purified.

With TglI (from UniProt A0A8T8BZN3), the binding result is reported as “binds”.
